No constants are given. Whether binding was seen depends on the method and setting. Some entries that bind do so weakly or less than the wild type.

The chains behind the UniProt entries cited, without tags or fusion partners. Residues count along the entry.
UniProt P03211, residues 441-619: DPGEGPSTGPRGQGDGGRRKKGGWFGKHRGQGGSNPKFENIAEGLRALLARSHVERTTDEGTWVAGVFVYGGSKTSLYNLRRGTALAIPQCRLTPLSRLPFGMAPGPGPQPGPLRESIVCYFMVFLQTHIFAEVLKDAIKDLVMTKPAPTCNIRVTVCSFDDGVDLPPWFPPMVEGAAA
UniProt P61956: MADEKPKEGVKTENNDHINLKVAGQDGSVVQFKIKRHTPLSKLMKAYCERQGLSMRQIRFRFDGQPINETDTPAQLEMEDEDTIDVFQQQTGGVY

This experiment addresses GST-fusion wild type EBNA1 DBD (441-619) (Epstein-Barr virus) (UniProt P03211). The experiment is described as follows: pull-down; purified His-SUMO1/2 incubated with GST-fusion EBNA1 DBD proteins purified from E. coli, pulled down with Glutathione-sepharose beads; immunoblot; both purified.

Regarding “His-SUMO2 recombinant protein (from UniProt P61956 1-95)”, the binding entry is “binds”.

(Values after publication PMC7105294.)
